Experimental data published in paper PMC10163288.
Some of the results follow.

B1: il10ra_site1_normal_mot_8756ee2cf497b5429c717dfc0c0bcfd6_0001_000000186_0001_1_13_H_._HHH_b1_02484_0001_0000400032_0000001_0_af2pred_0001 (protein)
chain: SSSSDTEEVFRLLQRLARLVREGDREEFEKLFEEAQRLIEEAGSAVLRAILEFLEEAIEKNSSSS
B2: il10ra_site1_normal_mot_8756ee2cf497b5429c717dfc0c0bcfd6_0001_000000186_0001_1_13_H_._HHH_b1_07372_0001_0000100003_0000001_1 (protein)
chain: SSSSSEEAREVYELIRRAAELHRNGNPEEAEEVLKEAEELAREANNDVLLFQIEYLLRHIGSSSS
B3: il10ra_site1_sap_19_mot_HHH_b2_08186_000000021_0001_43_56_H_._HHH_b1_05662_0001_0000200024_0000002_0_0001_af2pred_0001 (protein)
chain: SEEEELLKLLAEVLGVPPETIQEMLERLEKLAGNPEWALELIVRSVIDRDPRFREELEELLRKVK
B4: il10ra_site1_normal_mot_ems_3hC_416_0001_000000048_0001_1_19_H_._HHH_b1_00201_af2_0001_0000100004_0000002_0 (protein)
chain: SSSSNEALQEALELSIHAFRAALRGNPEEARELLEEALELAREGGNERLVRQIEELLRTLSSSSS
B5: il10ra_site1_sap_17_mot_HHH_b1_03763_000000209_0001_22_38_H_._HHH_b1_06016_0001_0000500017_0000001_0_0001 (protein)
chain: SSSSDDDEELLEAALRIAEQALEAGDPESARLILLAAARIAEELGNEELLEEIRRLLEEIRSSSS
B6: il10ra_site1_normal_mot_HHH_b2_06979_000000158_0001_42_57_H_._HHH_b2_06581_af2_0001_0000100005_0000001_0 (protein)
chain: SSSSDEEVQEIIKLLREAAEIEDKEEAQEVVEEALELARELGNELLAINVEFLLEDLRQGSSSSS
B7: il10ra_site1_sap_14_mot_HHH_b1_00103_000000293_0001_1_15_H_._HHH_b1_04446_0001_0000300019_0000002_0_0001_af2pred_0001 (protein)
chain: SSSSSDEEQARESVEWFLRAARQIEDEERVRLALRDAKLAAEWLNDPELEELVREVEEELSSSSS
B8: il10ra_site1_normal_mot_HHH_b2_00273_000000062_0001_23_39_H_._HHH_b1_02914_0001_0001000048_0000001_0 (protein)
chain: SSSSDREERIEHLLERAEELAEEGNPEEALRLLMEALRLAFELGDEELLQEIWEVARKVASSSSS
B9: il10ra_site1_normal_mot_HHH_b2_00277_af2_000000172_0001_1_17_H_._HHH_b2_06627_0001_0000100011_0000001_0_af2pred_0001 (protein)
chain: SSSSDEEEIEEEVRELLEEAKHIEDPRELAYVLTRAYALANRGNDPELRKLVERVAKELISSSSS
B10: il10ra_site1_sap_18_mot_HHH_b1_01011_000000096_0001_1_19_H_._HHH_b2_02769_0001_0000100001_0000001_0_0001 (protein)
chain: SSSSDIAEFLAEQALKAAKLLIERGDEEEAREALKVAQRAAEEANNPELVEEIRELLEELNSSSS
B11: il10ra_site1_sap_25_mot_HHH_b1_01879_000000050_0001_1_18_H_._HHH_b1_01497_af2_0001_0000200008_0000001_1_0001_af2pred_0001 (protein)
chain: SSSSSSEAEEEIRELLEEAEQIEDKLERSRVLQQALLLARRNNDPELEELVHKVARELLSSSSSS
B12: il10ra_site1_normal_mot_HHH_b1_06994_000000193_0001_40_55_H_._HHH_b1_00400_0001_0000200006_0000001_0 (protein)
chain: SSSDKQRRELVRTALVLVEQAVKAGDEETAEFLVISMEIAAEELNDPRLRELVEEAEELINSSSS
B13: il10ra_site1_normal_mot_HHH_b1_00999_000000080_0001_41_55_H_._HHH_b1_02815_0001_0000700030_0000002_0 (protein)
chain: SSSSDEEEERSKELLEELEELLRRGDQHRFLRLLQHIVRFAFEVSDEELLHEVWRLAREFGSSSS
B14: il10ra_site1_normal_mot_HHH_b2_00984_000000042_0001_1_20_H_._HHH_b1_08340_af2_0001_0000300017_0000001_0 (protein)
chain: SSSSDELEERIRELLEELEELVREGDEEAVSELALEIIRLLFELGNPELLHELWRLILSARSSSS
B15: il10ra_site1_sap_24_mot_HHH_b1_01307_000000115_0001_1_18_H_._HHH_b1_01868_af2_0001_0000100001_0000001_0_0001 (protein)
chain: SSSSSSSDFLEAIKEALHKLFRLGDEEAMHELWRLAKEIVKEGDPELREELKELVEELSSSSSSS
B16: il10ra_site1_sap_28_mot_HHH_b1_03314_af2_000000278_0001_42_55_H_._fa9d0efb6cdfa3d48f532c1d34b61b18_0001_af2_0001_0000800030_0000001_0_0001 (protein)
chain: SSSNVEEMVRTALMSVEIAYENNNPEYIEIALRFVRHILENHKDPEVEELLEEIEELLRRLSSSS
B17: il10ra_site1_normal_mot_HHH_b1_05326_000000242_0001_1_20_H_._HHH_b2_05084_af2_0001_0000700029_0000001_0 (protein)
chain: SSSSDEIIERALKLSVEAFRLALRGNPEEAEELLQEALELAREAGNPQLAEQIEILLETLGSSSS
B18: il10ra_site1_normal_mot_HHH_b2_04057_000000065_0001_1_20_H_._HHH_b1_01132_0001_0000100014_0000001_0 (protein)
chain: SSSSDERLEELLKELEELLKEGDSDEFYKVLRELIELARELNDQEVQRELLEILRRFLEQSSSSS
B19: il10ra_site1_sap_16_mot_8756ee2cf497b5429c717dfc0c0bcfd6_0001_000000186_0001_1_13_H_._HHH_b2_03216_af2_0001_0000500013_0000002_0_0001_af2pred_0001 (protein)
chain: SSSSSTEKFRIAVRFDARLLEVAKTEEQRRQVERAMELMKELVSEELQEELEEVLRELRSSSSSS
B20: il10ra_site1_normal_mot_HHH_b1_06789_af2_000000041_0001_1_20_H_._HHH_b2_03542_af2_0001_0000300009_0000001_0 (protein)
chain: SSSSDAVEFLIKQALKAIKIAIERGDEEVFEHALEIARRAIEQANDPEAEEILEELEREFKSSSS
B21: il10ra_site1_normal_mot_HHH_b2_04186_af2_000000278_0001_1_19_H_._HHH_b1_04260_0001_0000300022_0000001_0 (protein)
chain: SSSSDVRQEVLELVLEAFRLLLRGNEERARELLERALELAEELGDERLFRIIEDQLEILGSSSSS
B22: il10ra_site1_normal_mot_HHH_b1_06348_000000162_0001_1_15_H_._HHH_b1_03022_0001_0000100005_0000001_0 (protein)
chain: SSSSSEEAEELYRILRRVAELEFEGNPEEARELLEEAEELAREAGNFAFLANIEFMLRRLNSSSS
B23: il10ra_site1_sap_22_mot_HHH_b2_08231_af2_000000290_0001_1_18_H_._HHH_b1_03552_af2_0001_0000200004_0000002_0_0001_af2pred_0001 (protein)
chain: SSSSDEDEERLELTLRLVQFLLEQGSEEAARLLLEILRELAERANDEEIKEEIERLEELVNSSSS
B24: il10ra_site1_normal_mot_8756ee2cf497b5429c717dfc0c0bcfd6_0001_000000186_0001_1_13_H_._HHH_b2_01502_0001_0000100015_0000001_0_af2pred_0001 (protein)
chain: SSSSSSKRELLRKIAEALAEGDEEKAEELLEEAEELAKELGDLNFKALVEFAREILERLRSSSSS
B25: il10ra_site1_sap_27_mot_HHH_b1_01886_000000262_0001_1_18_H_._HHH_b2_00363_0001_0000300047_0000001_0_0001 (protein)
chain: SSSSDSEVAELLFEAVRLLFEGNPEEARKVVEEAEELAEELGDDELQRYVEIVKHFVEAQSSSSS
B26: il10ra_site1_normal_mot_HHH_b1_06914_000000280_0001_1_18_H_._HHH_b1_01011_0001_0000100001_0000002_0 (protein)
chain: SSSSDEEEEIFEEAEERAEELARRGDPERAAHILYRASRLLLELGDYELAHRLIELLVRLSSSSS
B27: il10ra_site1_normal_mot_8756ee2cf497b5429c717dfc0c0bcfd6_0001_000000186_0001_1_13_H_._HHH_b2_00624_0001_0000700066_0000001_0_af2pred_0001 (protein)
chain: SSSSSEEQEELFRLLRRAAELHHEGNPEEARELLEEAEELAREAGDLVAEAVIRYMLKLAGSSSS
B28: il10ra_site1_normal_mot_HHH_b2_02337_000000026_0001_38_52_H_._HHH_b1_06864_0001_0000200017_0000001_0 (protein)
chain: SSSSDLEEEIEELIRELERLLEEGDQEKFAEVAQRVVQLIYEAGDPELLKLVWEIVQRFASSSSS
B29: il10ra_site1_sap_15_mot_HHH_b1_04704_af2_000000076_0001_43_57_H_._HHH_b2_05371_0001_0000400025_0000001_0_0001_af2pred_0001 (protein)
chain: SSSSNKEEDVRSALKAAELAAEAGDEETVKRALKIAELSAEQSNDPELEREVRELEEKFESSSSS
B30: il10ra_site1_sap_18_mot_39ab2cb694c8b9c1dc7e65c0d672c93e_0001_000000036_0001_53_65_H_._HHH_b2_07044_af2_0001_0000600014_0000001_0_0001 (protein)
chain: SSSSDEYVELSIKFARWLIEAGDLEAARRILEAAAEIAERDNNPELLEEIRELIEQVEELGSSSS
B31: il10ra_site1_normal_mot_b26a303360aa2756ef5b79665ce52f45_0001_000000179_0001_1_11_H_._HHH_b2_00938_0001_0000300021_0000002_0_af2pred_0001 (protein)
chain: SSSSSESARIAREVAEEVAKLREEGDEEKAEELLEEALKRLEELNNPVAATNIRHALKVLRSSSS
B32: il10ra_site1_normal_mot_1cde5897893f3d1588f92be3b001cdf2_0001_af2_000000130_0001_54_65_H_._HHH_b2_06867_0001_0000600034_0000001_0_af2pred_0001 (protein)
chain: SSSSSSDEYREEVEELLEEARENPETASQLILEAARLAAEGNDPEALRLVLEFLKERFSSSSSSS
B33: il10ra_site1_sap_19_mot_HHH_b2_02053_af2_000000006_0001_3_19_H_._HHH_b1_08256_0001_0000100005_0000001_0_0001 (protein)
chain: SSSSSEIEEEVRELLKQAEELAEEGDPEEAAKVLQEATHLAIQAQDPELLRLVWEVVKKISSSSS
B34: il10ra_site1_sap_11_mot_HHH_b1_05789_000000283_0001_1_15_H_._HHH_b1_00584_0001_0000300024_0000001_1_0001_af2pred_dldesign_0_af2pred (protein)
chain: SSSSSAYKLLTEQALRAARLAAEAGDADAVAKALAIARQLAENAKDPELLARVEAERARLSSSSS
B35: il10ra_site1_sap_13_mot_HHH_b2_00277_af2_000000172_0001_1_17_H_._c0e252e6bbbdd727933fd7c9c1d8be2d_0001_0001_0000200010_0000001_0_0001 (protein)
chain: SSSSEEREVVELAFRAVRLLAHGNPEEARKVLEEAKELAEELNDEELQRYVEIALHFVEAHSSSS
B36: il10ra_site1_normal_mot_ems_3hM_235_000000244_0001_46_64_H_._HHH_b1_03428_af2_0001_0000400027_0000001_0 (protein)
chain: SSSSSDLERIWELSRRALELAANGNPEEAEELVREAHEIAEEAGDPALEFIVRALERRVRSSSSS
B37: il10ra_site1_normal_mot_HHH_b2_00475_000000107_0001_44_57_H_._HHH_b1_07089_af2_0001_0000100001_0000001_0 (protein)
chain: SSSSDEQEVAELIFRAVRLIAEGNLEEAEELLKEAEKIARENNDEELEEYVKIAEHFVRAHSSSS

target: il10ra, Q13651; assay: yeast display titration

Apparent Kd, inactive:
B1 no binding seen
B2 no binding seen
B3 no binding seen
B4 no binding seen
B5 no binding seen
B6 no binding seen
B7 no binding seen
B8 no binding seen
B9 no binding seen
B10 no binding seen
B11 no binding seen
B12 no binding seen
B13 no binding seen
B14 no binding seen
B15 no binding seen
B16 no binding seen
B17 no binding seen
B18 no binding seen
B19 no binding seen
B20 no binding seen
B21 no binding seen
B22 no binding seen
B23 no binding seen
B24 no binding seen
B25 no binding seen
B26 > 2950 nM
B27 no binding seen
B28 no binding seen
B29 no binding seen
B30 no binding seen
B31 no binding seen
B32 no binding seen
B33 no binding seen
B34 no binding seen
B35 no binding seen
B36 no binding seen
B37 no binding seen

Nothing new here: entries from further up.
Apparent Kd, inactive:
B22 no binding seen
B23 no binding seen
